Measurements reported in patent US20260364210A1, “COMPOSITIONS AND METHODS FOR TRANSGLUTAMINASE-MEDIATED ENDOCYTOSIS” (The Board of Trustees of the Leland Stanford Junior …, priority 2022, published 2026).
Part of at least one peptide drawing is inferred or uncertain, most often the ends. Residues, ends and D or L forms follow the SMILES beside them. No end group written: not given here.

Key:
human TG2 = molecular target: T1, human TG2 (Homo sapiens, UniProt P21980); test: Steady-state kinetic analysis / TG2 inhibition; assay type: biochemical; conditions: role: inhibitor
T1 sequence (P21980 1-687): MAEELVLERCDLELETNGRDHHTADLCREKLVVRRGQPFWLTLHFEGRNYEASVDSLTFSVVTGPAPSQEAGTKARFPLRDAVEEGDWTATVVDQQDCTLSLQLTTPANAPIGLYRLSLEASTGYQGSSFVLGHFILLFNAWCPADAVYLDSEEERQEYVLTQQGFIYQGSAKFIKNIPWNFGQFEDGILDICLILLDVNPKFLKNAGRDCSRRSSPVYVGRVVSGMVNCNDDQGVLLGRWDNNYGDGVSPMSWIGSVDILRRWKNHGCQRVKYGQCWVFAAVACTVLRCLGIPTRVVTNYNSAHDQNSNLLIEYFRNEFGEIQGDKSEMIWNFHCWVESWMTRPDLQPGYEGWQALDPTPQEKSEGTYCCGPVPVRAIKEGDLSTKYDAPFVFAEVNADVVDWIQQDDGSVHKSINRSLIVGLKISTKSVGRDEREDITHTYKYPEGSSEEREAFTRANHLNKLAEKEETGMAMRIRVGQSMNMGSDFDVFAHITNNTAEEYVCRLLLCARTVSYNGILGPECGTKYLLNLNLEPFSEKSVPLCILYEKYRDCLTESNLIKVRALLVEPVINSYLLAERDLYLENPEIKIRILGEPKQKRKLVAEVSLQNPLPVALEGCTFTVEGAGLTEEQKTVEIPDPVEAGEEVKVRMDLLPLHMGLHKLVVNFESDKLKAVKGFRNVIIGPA
Excerpt: FIG. 1: Kinetic analysis of TG2 inhibition by HB-225. Both substrate (PQLPF) and inhibitor concentrations were varied.
FIG. 2: Comparison of TG2 inhibition by HB-225 and HB-230. The two compounds have very similar kinetic properties.
Encouraged by this finding, we went on to design and synthesize our target fluorescent probe, HB230, in which a second unnatural amino acid residue, diaminobutyrate (DAB), was installed in place of Leu (L) in HB225. This residue was also predicted to neither be recognized by TG2 nor HLA-DQ2. Attachment of a Sulfo-Cy5 fluorophore via amide linkage to the DAB residue yielded the desired probe.

α2M = test: Internalization of fluorescently labeled α2M by NRK cells in the presence of unlabeled TG2 inhibitors; assay type: cell-based, rat
Description: FIG. 5A-5C: (A) HB-225 induces a dose dependent uptake of fluorescently tagged α2M.
To identify the conformational requirements for high-affinity recognition of TG2 by α2M, fluorescently labeled α2M was added to NRK cell cultures in the presence of different (unlabeled) TG2 inhibitors.

streptavidin = test: Endocytosis of fluorescent streptavidin by NRK cells; assay type: cell-based, rat; conditions: component alone
Description: FIG. 11: (A) Treating NRK cells with increasing concentrations of HB-3-003 in the presence of fluorescently tagged streptavidin leads to increased internalization of streptavidin after a 90 min treatment. (B) Quantification of dose response.
In order to determine the ability of this pathway to clear specifically targeted proteins from the extracellular environment, we synthesized a pentapeptide harboring the electrophilic warhead and a PEG-4 biotin conjugated to the DAB substituted Y amino acid (HB2110). Streptavidin is expected to bind to the biotin arm of the probe, and thus be endocytosed along with the rest of the complex as previously described. To test this hypothesis NRK cells were treated with 2 μM HB2110 and 1 μM Cy5-conjugated streptavidin.
We also synthesized the equivalent pentapeptide harbouring a Gln residue in the place of the electrophilic warhead, with biotin conjugated to the DAB substituted Y amino acid through a PEG linker (HB3-3). We then assed the ability of cells to endocytose fluorescent streptavidin in the presence of HB3-3 and α2M.

cubilin = test: Depletion of cell surface cubilin on NRK cells; assay type: cell-based, rat; conditions: component alone
Description: FIG. 12A-12C: (A) Treating NRK cells with increasing concentrations of HB-3-002 leads to decrease of cell membrane cubilin after a 90 min treatment. (B) Quantification of dose response.
Cell surface proteins can also be pharmacological targets. Thus we targeted cubilin, the canonical receptor for the intrinsic factor (IF)-vitamin B12 complex. We synthesized a pentapeptide harbouring a Gln residue in the X position, and vitamin B12 conjugated to the DAB substituted Y amino acid through a PEG-5 linker (HB3-2). […] Cubilin is stained using a sheep anti cubilin antibody which recognizes rat cubilin and an ovine Alexa-647 secondary antibody.

| Compound | specificity of TG2 inactivation (human TG2) | formation of α2M-labeled puncta / internalization of α2M (α2M) | uptake of streptavidin by individual components (streptavidin) | depletion of cubilin by individual components (cubilin) |
| --- | --- | --- | --- | --- |
| CC(=O)N1CCC[C@H]1C(=O)N[C@@H](CC/C=C/C(=O)N(C)C)C(=O)N[C@@H](CC(C)C)C(=O)N1CCC[C@H]1C(=O)N[C@@H](Cc1ccccc1)C(N)=O [HB-225] (HELM PEPTIDE1{[ac].P.[CN(C)C(=O)/C=C/CC[C@H](N[*:1])C(=O)[*:2]].L.P.F.[am]}$$$$V2.0) | high specificity | promoted dose-dependent formation of larger α2M-labeled puncta | – | – |
| PQLPF [PQLPF, reference compound] | – | – | do not lead to increased uptake of streptavidin | do not promote the depletion of cubilin |
